Experimental data reported in PubChem BioAssay AID248 (DTP/NCI, 2004).
The list shows only some results of the screen, not a fair sample: it is rich in T/C values a quarter to a half above the control, in often repeated tests (any T/C) and in doses without a T/C. Other doses and runs of a compound stand elsewhere. T/C gives the treated animals as a percentage of the vehicle group. Some doses have a count of surviving animals in place of a T/C: the source files T/C as zero there, which appears to mark a toxic dose or a test without result, not a measured value. Some doses without a T/C left all or most animals alive at the check, yet need not have been tolerated: the source hardly ever lists a survival T/C far under the control, and the zero likely stands for such cases as well. Counts of survivors are from the toxicity check (mostly the fifth day) where no day follows; animals may have died later. Schedules are NCI's codes, taken here to give the interval after Q, in days (D) or hours (H), and the number of doses after X. Some schedules carry Z or #; the key to these is not given. Some molecules as drawn cover several salts, stereoisomers or complexes of the source; a dose is that of the sample tested. Some entries hold several experiments; the values are given in rising order.

Tested on: L1210 leukemia ip in BDF1 mice, survival T/C
Assay: NCI In Vivo Anticancer Drug Screen. Data for tumor model L1210 Leukemia (intraperitoneal) in B6D2F1 (BDF1) mice
Details: T/C endpoint: mean survival time, higher T/C = longer survival
[1] = dose: 400.0 mg/kg/injection, schedule: Q01DX001 (ip), vehicle: saline
[2] = dose: 400.0 mg/kg/injection, schedule: Q01DX009 (ip), vehicle: saline
[3] = dose: 400.0 mg/kg/injection, schedule: Q04DX003 (ip), vehicle: saline

With `O=NN(CCI)C(=O)NCCI` the survivor count (dose: 300.0 mg/kg/injection, schedule: Q01DX001 (ip), vehicle: saline) was 0 of 6, the survivor count [1] was 0 of 6 and the survivor count (dose: 500.0 mg/kg/injection, schedule: Q01DX001 (ip), vehicle: saline) was 1 of 6. The survivor count (dose: 600.0 mg/kg/injection, schedule: Q01DX001 (ip), vehicle: saline) was 0 of 6, the survivor count (dose: 800.0 mg/kg/injection, schedule: Q01DX001 (ip), vehicle: saline) was 0 of 6 and the survivor count (dose: 1000.0 mg/kg/injection, schedule: Q01DX001 (ip), vehicle: saline) was 0 of 6.
`O=[n+]1c2c(n([O-])c3ccccc31)-c1cccc3cccc-2c13` was tested, and the survivor count (dose: 75.0 mg/kg/injection, schedule: Q01DX Z (ip), vehicle: methylcellulose (MC)) was 6 of 6, the survivor count (dose: 160.0 mg/kg/injection, schedule: Q01DX Z (ip), vehicle: methylcellulose (MC)) was 0 of 6 and the survivor count (dose: 240.0 mg/kg/injection, schedule: Q01DX Z (ip), vehicle: methylcellulose (MC)) was 0 of 6. For the same compound, the survivor count (dose: 360.0 mg/kg/injection, schedule: Q01DX Z (ip), vehicle: methylcellulose (MC)) was 0 of 6, the survivor count [1] was 2 of 6 and the survivor count (dose: 540.0 mg/kg/injection, schedule: Q01DX Z (ip), vehicle: methylcellulose (MC)) was 0 of 6.
For `Brc1ccc2c(c1)CCC2`, the survivor count (dose: 50.0 mg/kg/injection, schedule: Q01DX001 (ip), vehicle: saline) was 2 of 4.
With `Cc1ccc(NC(=O)C(Br)C(Br)C(=O)O)cc1Cl` (stereo unspecified) the survivor count (dose: 400.0 mg/kg/injection, schedule: Q01DX009 (ip), vehicle: saline with Tween-80) was 0 of 6.
`CC(=O)OC1C(C)OC(OC2C=C3CCC4C(CCC5(C)C(c6ccc(=O)oc6)CCC45O)C3(C)CC2)C(OC(C)=O)C1OC(C)=O` (stereo unspecified) was tested, and the survivor count (dose: 50.0 mg/kg/injection, schedule: Q04DX003 (ip), vehicle: saline with Tween-80) was 3 of 6, the survivor count (dose: 100.0 mg/kg/injection, schedule: Q04DX003 (ip), vehicle: saline with Tween-80) was 2 of 6 and the survivor count (dose: 200.0 mg/kg/injection, schedule: Q04DX003 (ip), vehicle: saline with Tween-80) was 1 of 6. The survivor count (dose: 400.0 mg/kg/injection, schedule: Q04DX003 (ip), vehicle: saline with Tween-80) was 0 of 6.
For `N#CC(OC(=O)c1ccccc1)c1ccc([N+](=O)[O-])cc1` (stereo unspecified), the survivor count (dose: 200.0 mg/kg/injection, schedule: Q01DX001 (ip), vehicle: saline) was 1 of 4 and the survivor count [1] was 0 of 4.
With `C/C(=N/N(C)C)c1ccc(C)cc1` the survivor count (dose: 200.0 mg/kg/injection, schedule: Q01DX009 (ip), vehicle: saline) was 3 of 6 and the survivor count [2] was 0 of 6.
For `C=CC[n+]1ccccc1Br`, the survivor count (dose: 250.0 mg/kg/injection, schedule: Q01DX015 (ip), vehicle: water) was 0 of 6 and the survivor count (dose: 500.0 mg/kg/injection, schedule: Q01DX015 (ip), vehicle: water) was 0 of 6.
`CCCCCCCCCCCCCCCCCC[P+](CCCC)(CCCC)CCCC` was tested, and the survivor count (dose: 12.5 mg/kg/injection, schedule: Q04DX002 (ip), vehicle: saline with Tween-80) was 2 of 3, the survivor count (dose: 25.0 mg/kg/injection, schedule: Q04DX002 (ip), vehicle: saline with Tween-80) was 0 of 3 and the survivor count (dose: 50.0 mg/kg/injection, schedule: Q04DX002 (ip), vehicle: saline with Tween-80) was 0 of 3. The survivor count (dose: 100.0 mg/kg/injection, schedule: Q04DX002 (ip), vehicle: saline with Tween-80) was 0 of 3, the survivor count (dose: 200.0 mg/kg/injection, schedule: Q04DX002 (ip), vehicle: saline with Tween-80) was 0 of 3 and the survivor count (dose: 400.0 mg/kg/injection, schedule: Q04DX002 (ip), vehicle: saline with Tween-80) was 0 of 3.
In the case of `NC(N)=Nc1ccccc1` (tested in a mixture with another compound), the survivor count [3] is reported as 1 of 6.
For `NC(CSCC(N)=NCC1C2CC3CC(C2)CC1C3)=NCC1C2CC3CC(C2)CC1C3` (stereo unspecified), the survivor count (dose: 200.0 mg/kg/injection, schedule: Q04DX002 (ip), vehicle: Klucel (hydroxypropylcellulose) (HPC)) was 1 of 3 and the survivor count (dose: 400.0 mg/kg/injection, schedule: Q04DX002 (ip), vehicle: Klucel (hydroxypropylcellulose) (HPC)) was 1 of 3.
For `C[n+]1cccc2ccccc21`, the survivor count (dose: 100.0 mg/kg/injection, schedule: Q04DX003 (ip), vehicle: saline) was 6 of 6, the survivor count (dose: 200.0 mg/kg/injection, schedule: Q04DX003 (ip), vehicle: saline) was 0 of 6 and 1 of 6 and the survivor count [3] was 0 of 6 and 1 of 6.
With `NC(=O)N1C(=O)C2C3C=CC(O3)C2C1=O` (stereo unspecified) the survivor count [2] was 6 of 6.
`O=C1C2CCN(CC2)C1Cn1cnc2c(Cl)ncnc21` (stereo unspecified) was tested, and the survivor count (dose: 400.0 mg/kg/injection, schedule: Q01DX001 (ip), vehicle: Klucel (hydroxypropylcellulose) (HPC)) was 3 of 6.
For `O=C(CBr)c1ccc(Br)cc1`, the survivor count (dose: 50.0 mg/kg/injection, schedule: Q04DX002 (ip), vehicle: Klucel (hydroxypropylcellulose) (HPC)) was 3 of 3.
In the case of `Nc1ccc(CCCCc2ccccc2)cc1`, the survivor count (dose: 100.0 mg/kg/injection, schedule: Q01DX009 (ip), vehicle: saline with Tween-80) is reported as 5 of 6.
`O=[N+]([O-])c1ccc(Cl)c(I)c1` was tested, and the survivor count (dose: 100.0 mg/kg/injection, schedule: Q01DX009 (ip), vehicle: saline + alcohol) was 3 of 3.
